Reference: patent US10233205B2, “Magnetic resonance imaging contrast agent capable of detecting hydrogen peroxide and reducing reactive oxygen species” (Auburn University, priority 2015, dated 2019)

Experiment: Extent of quinol oxidation by H2O2

Compound | decrease in intensity of quinol hydroxyl 1H NMR peaks upon oxidation (4.0 equiv H2O2, MeCN-d3, after Zn(ClO4)2) | oxidation of the H2qtp1 ligand (4.0 equiv H2O2, MeCN-d3, from integrated quinol peaks) | quinols oxidized to para-quinones by excess H2O2 (excess H2O2) | sensor oxidized by excess H2O2, from relaxivity results (excess H2O2) | quinols oxidized (4 equiv. H2O2, CD3CN, 1 h)
CC#N.O=S(=O)([O-])C(F)(F)F.O=S(=O)([O-])C(F)(F)F.[Mn+2].[O-]c1ccc(O)cc1CN(CCN(Cc1ccccn1)Cc1ccccn1)Cc1ccccn1 [Complex 1, Acetonitrilo(N-(2,5-dihydroxy-benzyl)-N,N′,N′-tris(2-pyridinylmethyl)-1,2-ethanediamine)manganese(II) triflate] | approximately 45% | ~55% | ~70% | ~70% | 
cis-Dibromo(N,N′-bis(2,5-dihydroxybenzyl)-N,N′-bis(2-pyridinylmethyl)-1,2-ethanediamine)manganese(II) [Complex 3] |  |  | ~70% |  | 50%
